Here are results for 36 targets from the supplement of paper PMC12819154, “High-throughput peptide-centric local stability assay extends protein–ligand identification to membrane proteins, tissues and bacteria” (Nature Structural & Molecular Biology, 2025).

By UniProt entry, the sequences of proteins in these tests, tags left out. Where a name states a change or a piece, a line headed by the entry shows the natural chain unless it says otherwise.
UniProt Q9ES56, whole entry: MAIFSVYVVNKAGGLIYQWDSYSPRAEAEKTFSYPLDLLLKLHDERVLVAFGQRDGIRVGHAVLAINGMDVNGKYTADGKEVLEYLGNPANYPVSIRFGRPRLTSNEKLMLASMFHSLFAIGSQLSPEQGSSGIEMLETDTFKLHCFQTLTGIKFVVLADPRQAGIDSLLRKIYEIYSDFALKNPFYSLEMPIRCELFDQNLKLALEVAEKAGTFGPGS
UniProt Q9ERZ6: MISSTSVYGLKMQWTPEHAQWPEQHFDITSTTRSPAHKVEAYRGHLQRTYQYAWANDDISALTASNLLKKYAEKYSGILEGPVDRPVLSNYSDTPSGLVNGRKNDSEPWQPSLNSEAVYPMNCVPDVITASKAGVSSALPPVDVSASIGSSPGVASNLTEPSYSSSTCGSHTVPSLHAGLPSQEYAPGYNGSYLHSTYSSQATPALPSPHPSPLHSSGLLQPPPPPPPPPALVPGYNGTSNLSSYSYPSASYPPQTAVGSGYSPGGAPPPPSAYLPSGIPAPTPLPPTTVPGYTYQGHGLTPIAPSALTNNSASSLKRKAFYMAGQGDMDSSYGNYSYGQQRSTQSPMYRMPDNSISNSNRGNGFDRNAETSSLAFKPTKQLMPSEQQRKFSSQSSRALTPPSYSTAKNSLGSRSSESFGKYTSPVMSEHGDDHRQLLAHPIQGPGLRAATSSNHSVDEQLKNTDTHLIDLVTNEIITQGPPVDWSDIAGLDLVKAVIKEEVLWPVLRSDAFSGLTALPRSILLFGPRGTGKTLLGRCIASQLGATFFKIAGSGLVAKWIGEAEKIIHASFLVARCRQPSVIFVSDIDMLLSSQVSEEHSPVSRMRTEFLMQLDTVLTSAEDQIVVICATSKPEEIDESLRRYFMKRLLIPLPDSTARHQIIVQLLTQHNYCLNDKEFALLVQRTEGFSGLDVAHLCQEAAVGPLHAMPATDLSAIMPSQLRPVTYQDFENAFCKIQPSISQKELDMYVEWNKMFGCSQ
UniProt Q9JHQ5: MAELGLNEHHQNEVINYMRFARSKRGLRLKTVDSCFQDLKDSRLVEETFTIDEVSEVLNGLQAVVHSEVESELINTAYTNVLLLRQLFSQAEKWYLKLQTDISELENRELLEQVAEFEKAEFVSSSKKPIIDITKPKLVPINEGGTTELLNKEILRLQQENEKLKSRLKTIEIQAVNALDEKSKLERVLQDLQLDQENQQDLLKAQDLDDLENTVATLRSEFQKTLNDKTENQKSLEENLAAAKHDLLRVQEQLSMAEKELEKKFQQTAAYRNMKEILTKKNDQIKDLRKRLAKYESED
UniProt Q9QUM9: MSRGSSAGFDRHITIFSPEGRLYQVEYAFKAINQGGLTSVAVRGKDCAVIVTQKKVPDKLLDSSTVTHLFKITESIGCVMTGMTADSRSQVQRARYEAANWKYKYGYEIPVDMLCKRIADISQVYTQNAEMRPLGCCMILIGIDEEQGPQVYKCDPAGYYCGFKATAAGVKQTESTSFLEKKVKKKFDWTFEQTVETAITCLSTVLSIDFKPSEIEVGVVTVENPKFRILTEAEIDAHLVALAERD
UniProt Q9JLB0: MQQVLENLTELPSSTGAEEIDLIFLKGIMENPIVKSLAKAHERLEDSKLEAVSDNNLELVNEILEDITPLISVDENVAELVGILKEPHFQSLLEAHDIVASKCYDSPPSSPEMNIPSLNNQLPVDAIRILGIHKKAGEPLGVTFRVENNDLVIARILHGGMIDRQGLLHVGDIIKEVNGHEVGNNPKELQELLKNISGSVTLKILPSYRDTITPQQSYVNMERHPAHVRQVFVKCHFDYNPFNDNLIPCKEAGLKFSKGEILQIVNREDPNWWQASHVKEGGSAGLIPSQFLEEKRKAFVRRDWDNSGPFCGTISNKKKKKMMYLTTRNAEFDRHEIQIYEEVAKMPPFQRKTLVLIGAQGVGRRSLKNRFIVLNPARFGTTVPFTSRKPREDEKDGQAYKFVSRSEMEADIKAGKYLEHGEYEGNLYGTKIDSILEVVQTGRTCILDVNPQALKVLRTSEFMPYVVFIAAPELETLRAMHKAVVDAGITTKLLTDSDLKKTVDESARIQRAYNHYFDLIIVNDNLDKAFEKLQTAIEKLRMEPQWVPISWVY
UniProt Q9JLM4: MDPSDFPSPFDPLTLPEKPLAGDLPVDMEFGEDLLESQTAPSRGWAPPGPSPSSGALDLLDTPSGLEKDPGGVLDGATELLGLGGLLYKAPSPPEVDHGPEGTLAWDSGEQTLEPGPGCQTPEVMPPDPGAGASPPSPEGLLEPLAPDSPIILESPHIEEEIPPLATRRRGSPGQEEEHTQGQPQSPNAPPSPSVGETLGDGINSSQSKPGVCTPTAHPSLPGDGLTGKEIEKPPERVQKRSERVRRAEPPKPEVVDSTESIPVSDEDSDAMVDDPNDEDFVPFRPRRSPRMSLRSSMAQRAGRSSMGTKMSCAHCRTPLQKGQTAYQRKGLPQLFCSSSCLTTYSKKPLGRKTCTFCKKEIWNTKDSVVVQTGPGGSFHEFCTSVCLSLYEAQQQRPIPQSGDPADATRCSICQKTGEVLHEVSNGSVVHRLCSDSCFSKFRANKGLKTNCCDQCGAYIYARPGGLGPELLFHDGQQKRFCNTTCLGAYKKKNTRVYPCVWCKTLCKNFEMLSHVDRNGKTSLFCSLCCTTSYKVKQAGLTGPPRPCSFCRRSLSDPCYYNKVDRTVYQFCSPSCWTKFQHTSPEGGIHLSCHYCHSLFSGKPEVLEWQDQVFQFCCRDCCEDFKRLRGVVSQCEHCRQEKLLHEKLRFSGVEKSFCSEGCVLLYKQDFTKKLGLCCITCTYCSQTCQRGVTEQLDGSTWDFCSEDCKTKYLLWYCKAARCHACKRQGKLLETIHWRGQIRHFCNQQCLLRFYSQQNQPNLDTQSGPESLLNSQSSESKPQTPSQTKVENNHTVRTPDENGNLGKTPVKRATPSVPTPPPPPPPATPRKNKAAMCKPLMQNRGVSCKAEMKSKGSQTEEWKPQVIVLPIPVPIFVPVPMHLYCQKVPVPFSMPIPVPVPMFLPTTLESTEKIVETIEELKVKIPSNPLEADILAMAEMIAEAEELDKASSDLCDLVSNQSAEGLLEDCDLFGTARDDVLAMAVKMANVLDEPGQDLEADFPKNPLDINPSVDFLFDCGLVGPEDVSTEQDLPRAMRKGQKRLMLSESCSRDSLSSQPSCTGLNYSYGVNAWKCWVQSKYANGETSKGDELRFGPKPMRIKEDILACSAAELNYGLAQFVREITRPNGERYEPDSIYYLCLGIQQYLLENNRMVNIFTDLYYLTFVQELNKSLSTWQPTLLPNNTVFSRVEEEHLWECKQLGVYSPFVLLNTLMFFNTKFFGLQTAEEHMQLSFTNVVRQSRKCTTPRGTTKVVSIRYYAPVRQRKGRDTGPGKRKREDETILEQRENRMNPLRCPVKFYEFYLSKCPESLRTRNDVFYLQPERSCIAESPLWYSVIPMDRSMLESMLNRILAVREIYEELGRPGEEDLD
UniProt Q9ESJ0: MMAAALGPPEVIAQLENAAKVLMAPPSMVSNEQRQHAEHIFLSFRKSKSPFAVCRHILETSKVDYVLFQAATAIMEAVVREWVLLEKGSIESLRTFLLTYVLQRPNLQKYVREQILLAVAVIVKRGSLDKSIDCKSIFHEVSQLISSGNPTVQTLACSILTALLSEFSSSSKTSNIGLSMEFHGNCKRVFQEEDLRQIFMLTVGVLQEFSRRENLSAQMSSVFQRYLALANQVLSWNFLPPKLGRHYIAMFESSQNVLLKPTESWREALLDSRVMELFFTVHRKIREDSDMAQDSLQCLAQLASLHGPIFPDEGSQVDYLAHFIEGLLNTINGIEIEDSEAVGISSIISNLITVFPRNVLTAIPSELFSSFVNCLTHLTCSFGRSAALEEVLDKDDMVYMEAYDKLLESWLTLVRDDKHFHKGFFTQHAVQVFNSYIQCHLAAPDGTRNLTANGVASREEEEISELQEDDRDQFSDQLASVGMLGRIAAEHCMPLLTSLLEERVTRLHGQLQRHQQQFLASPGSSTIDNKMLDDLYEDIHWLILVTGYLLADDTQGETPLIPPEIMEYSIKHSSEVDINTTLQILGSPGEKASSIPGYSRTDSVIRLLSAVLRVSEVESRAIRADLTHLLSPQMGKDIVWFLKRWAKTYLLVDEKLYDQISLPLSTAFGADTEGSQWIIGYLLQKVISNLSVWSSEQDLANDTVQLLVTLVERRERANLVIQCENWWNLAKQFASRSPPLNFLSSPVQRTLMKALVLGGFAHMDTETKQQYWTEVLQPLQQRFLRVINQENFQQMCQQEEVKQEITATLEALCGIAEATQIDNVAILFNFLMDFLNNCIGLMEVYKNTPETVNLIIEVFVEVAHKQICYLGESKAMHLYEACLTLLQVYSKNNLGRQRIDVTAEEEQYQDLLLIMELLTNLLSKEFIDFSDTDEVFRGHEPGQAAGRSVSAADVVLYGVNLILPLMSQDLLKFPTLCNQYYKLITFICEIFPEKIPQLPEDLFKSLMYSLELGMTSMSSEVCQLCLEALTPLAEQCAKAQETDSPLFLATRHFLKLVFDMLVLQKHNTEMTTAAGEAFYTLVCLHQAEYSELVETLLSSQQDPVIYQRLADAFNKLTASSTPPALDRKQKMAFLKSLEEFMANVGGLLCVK
UniProt Q9QUH0: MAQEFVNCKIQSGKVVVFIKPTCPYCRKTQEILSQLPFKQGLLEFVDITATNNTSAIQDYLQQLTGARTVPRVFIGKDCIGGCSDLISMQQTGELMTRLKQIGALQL
UniProt Q9JME7, whole entry: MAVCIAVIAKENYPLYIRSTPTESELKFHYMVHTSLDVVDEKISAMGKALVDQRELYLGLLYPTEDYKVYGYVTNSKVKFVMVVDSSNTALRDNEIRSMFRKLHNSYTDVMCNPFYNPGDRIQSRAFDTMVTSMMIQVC
UniProt Q9JJR8: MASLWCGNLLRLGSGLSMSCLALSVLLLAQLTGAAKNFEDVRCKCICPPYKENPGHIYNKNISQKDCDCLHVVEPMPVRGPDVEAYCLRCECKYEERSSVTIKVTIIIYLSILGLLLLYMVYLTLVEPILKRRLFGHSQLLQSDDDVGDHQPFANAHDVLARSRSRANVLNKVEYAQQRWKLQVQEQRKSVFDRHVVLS
UniProt Q9JHR7, whole entry: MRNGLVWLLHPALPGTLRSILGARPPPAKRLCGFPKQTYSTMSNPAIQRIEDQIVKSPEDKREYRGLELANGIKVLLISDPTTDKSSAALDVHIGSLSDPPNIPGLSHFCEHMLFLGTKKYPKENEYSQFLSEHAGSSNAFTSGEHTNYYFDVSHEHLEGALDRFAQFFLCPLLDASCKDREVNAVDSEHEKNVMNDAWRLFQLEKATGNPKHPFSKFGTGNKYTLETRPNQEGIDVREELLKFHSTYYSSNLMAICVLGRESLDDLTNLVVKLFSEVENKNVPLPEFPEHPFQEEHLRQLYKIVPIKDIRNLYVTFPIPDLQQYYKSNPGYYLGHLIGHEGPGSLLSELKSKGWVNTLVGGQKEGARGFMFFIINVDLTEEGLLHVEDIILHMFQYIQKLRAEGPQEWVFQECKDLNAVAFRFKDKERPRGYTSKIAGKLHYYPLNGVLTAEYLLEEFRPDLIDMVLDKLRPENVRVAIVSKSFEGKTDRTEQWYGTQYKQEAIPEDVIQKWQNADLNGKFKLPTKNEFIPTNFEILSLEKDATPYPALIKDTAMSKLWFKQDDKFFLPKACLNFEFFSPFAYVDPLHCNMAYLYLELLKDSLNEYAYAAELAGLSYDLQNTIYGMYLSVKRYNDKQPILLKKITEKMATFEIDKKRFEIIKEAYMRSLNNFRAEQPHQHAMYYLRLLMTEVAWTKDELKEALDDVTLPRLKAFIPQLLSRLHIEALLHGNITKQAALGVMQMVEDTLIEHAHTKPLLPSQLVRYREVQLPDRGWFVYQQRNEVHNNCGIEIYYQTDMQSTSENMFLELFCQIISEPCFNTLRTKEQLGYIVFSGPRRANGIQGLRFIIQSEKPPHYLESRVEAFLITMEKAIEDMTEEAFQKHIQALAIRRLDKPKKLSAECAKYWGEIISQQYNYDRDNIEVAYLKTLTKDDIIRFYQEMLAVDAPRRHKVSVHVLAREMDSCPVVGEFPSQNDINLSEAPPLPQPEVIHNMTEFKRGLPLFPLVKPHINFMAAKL
UniProt Q9JIX9: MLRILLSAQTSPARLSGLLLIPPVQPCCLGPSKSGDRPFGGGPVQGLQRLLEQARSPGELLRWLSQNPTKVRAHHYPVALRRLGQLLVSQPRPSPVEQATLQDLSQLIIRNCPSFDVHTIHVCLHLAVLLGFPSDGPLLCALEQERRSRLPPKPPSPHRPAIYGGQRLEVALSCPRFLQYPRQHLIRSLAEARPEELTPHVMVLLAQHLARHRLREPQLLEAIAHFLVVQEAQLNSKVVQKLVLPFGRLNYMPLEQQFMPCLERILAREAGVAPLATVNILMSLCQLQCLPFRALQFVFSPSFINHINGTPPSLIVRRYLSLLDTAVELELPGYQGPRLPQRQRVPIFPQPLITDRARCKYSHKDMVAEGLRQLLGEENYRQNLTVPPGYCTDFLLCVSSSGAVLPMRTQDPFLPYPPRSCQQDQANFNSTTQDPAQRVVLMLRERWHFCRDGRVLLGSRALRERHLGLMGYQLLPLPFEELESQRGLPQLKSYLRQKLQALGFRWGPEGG

Some of the results follow. Most entries show no effect beyond the scatter of the controls.

Compound in the test: CN[C@@H]1C[C@H]2O[C@@](C)([C@@H]1OC)n1c3ccccc3c3c4c(c5c6ccccc6n2c5c31)C(=O)NC4 [staurosporine]
As to the kind of experiment: log2 fold change of tryptic peptide abundance, ligand vs vehicle (limited proteolysis) (log2 ratio); higher = more trypsin-susceptible (destabilized). As to conditions: ligand concentration: 20 uM; sample: mouse liver crude lysate; replicate design: treated separately.
In the case of “UniProt Q9ES56 (peptide sequence: FGRPRLTSNEK, peptide start residue: 98)”, the log2 fold change stood at 0.32.

In the case of “UniProt Q9ESU6 (peptide sequence: DVPDSQQHPGPEK, peptide start residue: 335)”, the log2 fold change worked out at 0.428.

Regarding “UniProt Q9ERZ6 (peptide sequence: QLLAHPIQGPGLR, peptide start residue: 436)”, the log2 fold change worked out at 0.266.

As to “UniProt Q9JHQ5 (peptide sequence: LKTIEIQAVNALDEK, peptide start residue: 168)”, the log2 fold change was -0.184.

“UniProt Q9QUM9 (peptide sequence: AINQGGLTSVAVR, peptide start residue: 31)”: the log2 fold change came to 0.367.

On to “UniProt Q9JM95 (peptide sequence: VVAHSSVFR, peptide start residue: 155)”, for which the log2 fold change turned out to be 0.341.

“UniProt Q9JMH9 (peptide sequence: APEGQAYR, peptide start residue: 244)”: the log2 fold change is -0.279.

In the case of “UniProt Q9JK24 (peptide sequence: LPAEDEVLLQK, peptide start residue: 63)”, the log2 fold change is -0.136.

On to “UniProt Q9JII6 (peptide sequence: AVPREELFVTSK, peptide start residue: 69)”, for which the log2 fold change is -0.435.

On to “UniProt Q9JLJ5 (peptide sequence: AVQQNGAPATTK, peptide start residue: 264)”, for which the log2 fold change is -0.0496.

With “UniProt Q9JLB0 (peptide sequence: KAGEPLGVTFR, peptide start residue: 135)”, the log2 fold change is 0.272.

Take “UniProt Q9JIG8 (peptide sequence: IENKIESIGLKR, peptide start residue: 149)”: the log2 fold change is -0.284.

As to “UniProt Q9JIH2 (peptide sequence: GVGTLHLKPTATQK, peptide start residue: 375)”, the log2 fold change is -0.338.

With “UniProt Q9JJI6 (peptide sequence: RQPLPGSESEAR, peptide start residue: 973)”, the log2 fold change was -0.202.

As for “UniProt Q9JJQ0 (peptide sequence: NLHGSSGEMK, peptide start residue: 14)”, the log2 fold change is -0.0284.

Regarding “UniProt Q9ES18 (peptide sequence: LGSASQAGPPGGAR, peptide start residue: 27)”, the log2 fold change is -0.0594.

Take “UniProt Q9JLM4 (peptide sequence: GVVSQCEHCR, peptide start residue: 630)”: the log2 fold change worked out at 0.727.

As for “UniProt Q9JIF0 (peptide sequence: TGEEIFGTIGMRPNAK, peptide start residue: 327)”, the log2 fold change came out at 0.373.

For the target “UniProt Q9ESJ0 (peptide sequence: LTASSTPPALDRK, peptide start residue: 1116)”, the log2 fold change was -0.781.

Turning to “UniProt Q9JKB1 (peptide sequence: FMERDPDELR, peptide start residue: 212)”, the log2 fold change is -0.385.

Regarding “UniProt Q9JKV2 (peptide sequence: YLPGINIR, peptide start residue: 492)”, the log2 fold change was -0.0221.

For the target “UniProt Q9ES00 (peptide sequence: HLLNSPTDPFNR, peptide start residue: 1132)”, the log2 fold change was -0.33.

As to “UniProt Q9JL19 (peptide sequence: MAVPEDQSKK, peptide start residue: 1455)”, the log2 fold change was found to be 0.508.

As to “UniProt Q9QUH0 (peptide sequence: TQEILSQLPFK, peptide start residue: 29)”, the log2 fold change is -0.294.

As for “UniProt Q9JME7 (peptide sequence: VYGYVTNSK, peptide start residue: 69)”, the log2 fold change was -0.166.

As to “UniProt Q9JHS9 (peptide sequence: YRQTTQDAPEEVR, peptide start residue: 43)”, the log2 fold change is -0.309.

For “UniProt Q9JJR8 (peptide sequence: SRANVLNKVEYAQQR, peptide start residue: 165)”, the log2 fold change was -0.408.

With “UniProt Q9JJ78 (peptide sequence: KLLHGDIK, peptide start residue: 161)”, the log2 fold change amounted to 0.0155.

Regarding “UniProt Q9JHR7 (peptide sequence: AFIPQLLSR, peptide start residue: 714)”, the log2 fold change is -0.398.

For “UniProt Q9JM13 (peptide sequence: IMDQIEK, peptide start residue: 207)”, the log2 fold change is 0.0966.

With “UniProt Q9JJK5 (peptide sequence: NPSKMPETSTK, peptide start residue: 90)”, the log2 fold change is 0.274.

Take “UniProt Q9JIX9 (peptide sequence: LEVALSCPR, peptide start residue: 168)”: the log2 fold change was -0.0679.

As to “UniProt Q9ES52 (peptide sequence: TGSSNLPHLKK, peptide start residue: 204)”, the log2 fold change turned out to be 0.584.

“UniProt Q9ESN9 (peptide sequence: HTEMIQTYVEHIER, peptide start residue: 168)”: the log2 fold change amounted to 0.764.

Consider “UniProt Q9JHI7 (peptide sequence: FGFAESIANQR, peptide start residue: 282)”, for which the log2 fold change was found to be 0.0426.

As to “UniProt Q9JIB4 (peptide sequence: MDEEPERTK, peptide start residue: 1)”, the log2 fold change is -0.52.
